Assay results: publication PMC4755545

By UniProt entry, the sequences of proteins in these tests, tags left out. Where a name states a change or a piece, a line headed by the entry shows the natural chain unless it says otherwise.
UniProt O42839: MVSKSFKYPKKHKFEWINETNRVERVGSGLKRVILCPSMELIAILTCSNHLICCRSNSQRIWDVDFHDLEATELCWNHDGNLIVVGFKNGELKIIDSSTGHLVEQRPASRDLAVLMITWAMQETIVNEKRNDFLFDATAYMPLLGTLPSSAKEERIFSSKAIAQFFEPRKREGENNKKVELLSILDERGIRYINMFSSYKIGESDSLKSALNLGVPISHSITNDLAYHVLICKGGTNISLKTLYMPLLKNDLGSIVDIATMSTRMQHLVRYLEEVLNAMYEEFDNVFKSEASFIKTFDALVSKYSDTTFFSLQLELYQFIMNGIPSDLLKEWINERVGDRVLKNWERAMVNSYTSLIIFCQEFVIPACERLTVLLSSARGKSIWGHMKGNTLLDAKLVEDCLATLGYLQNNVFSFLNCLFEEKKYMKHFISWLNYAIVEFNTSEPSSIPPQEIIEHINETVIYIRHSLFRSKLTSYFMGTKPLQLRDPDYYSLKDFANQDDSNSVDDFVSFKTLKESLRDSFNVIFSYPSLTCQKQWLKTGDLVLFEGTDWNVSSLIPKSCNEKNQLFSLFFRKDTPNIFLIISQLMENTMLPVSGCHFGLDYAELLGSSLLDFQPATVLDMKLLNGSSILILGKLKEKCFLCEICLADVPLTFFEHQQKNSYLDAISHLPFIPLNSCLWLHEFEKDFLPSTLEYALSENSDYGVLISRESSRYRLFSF
UniProt P78972: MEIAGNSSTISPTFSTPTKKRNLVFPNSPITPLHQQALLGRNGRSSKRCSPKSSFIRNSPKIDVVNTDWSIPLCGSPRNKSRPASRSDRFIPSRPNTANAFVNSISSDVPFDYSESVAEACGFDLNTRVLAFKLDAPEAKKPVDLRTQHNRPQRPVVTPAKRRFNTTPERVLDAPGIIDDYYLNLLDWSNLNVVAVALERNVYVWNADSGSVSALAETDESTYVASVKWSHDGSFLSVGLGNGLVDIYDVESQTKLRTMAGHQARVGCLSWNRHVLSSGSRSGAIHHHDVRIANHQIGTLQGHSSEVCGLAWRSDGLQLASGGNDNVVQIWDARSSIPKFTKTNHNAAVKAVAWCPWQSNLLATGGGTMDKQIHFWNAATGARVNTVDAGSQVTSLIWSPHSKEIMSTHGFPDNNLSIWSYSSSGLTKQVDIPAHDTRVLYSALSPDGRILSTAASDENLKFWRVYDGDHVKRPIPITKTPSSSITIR
UniProt O59767: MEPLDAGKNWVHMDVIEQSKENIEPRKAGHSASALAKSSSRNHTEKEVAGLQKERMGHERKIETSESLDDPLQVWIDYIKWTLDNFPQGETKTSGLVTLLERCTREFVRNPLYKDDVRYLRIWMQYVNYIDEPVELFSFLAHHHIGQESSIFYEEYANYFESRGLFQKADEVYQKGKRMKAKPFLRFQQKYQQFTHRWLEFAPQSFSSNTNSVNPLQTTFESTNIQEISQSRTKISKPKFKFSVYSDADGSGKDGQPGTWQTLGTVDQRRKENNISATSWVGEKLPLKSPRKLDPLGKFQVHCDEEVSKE

What was measured:
[1] = molecular target: TAP-tagged Lid1 (Apc4), subunit of the APC/C (S. pombe) (UniProt O42839); test: co-IP; Apc4-TAP pulled down with IgG Dynabeads from extracts of cdc25-22 cells released from G2 into mitosis at 25°C, carbendazim added after 20 min, time points every 15 min; blots for Mad3p (anti-GFP) and Mad2p; lysis buffer 50 mM HEPES pH 7.5, 75 mM KCl, 0.1% TritonX-100; strains wild type, mad3-KEN1, mad3-KEN2, mad3-C9A, mad2-S92A, mad3-C9A mad2-S92A
[2] = molecular target: Cdc20^Slp1 with an internally-engineered 3xFLAG tag (S. pombe) (UniProt P78972); test: co-IP; Cdc20^Slp1-3xFLAG immunoprecipitated with anti-FLAG (M2) antibodies on Dynabeads from native extracts of cdc25-22 cells released from G2 into mitosis at 25°C, time points every 15 min; blots for Mad3p (anti-GFP) and Mad2p; strains wild type, mad3-C9A, mad2-S92A, mad3-C9A mad2-S92A, mps1-kd

Substance	binding [1]	binding [2]
Mad3-C9A tagged with GFP (from UniProt O59767)	binds	binds
Mad3-KEN1 mutant tagged with GFP (from UniProt O59767)	no binding	
Mad3-KEN2 mutant tagged with GFP (from UniProt O59767)	binds	

Results are given in words; binding and its absence hold for the method and conditions named. Binding seen in cells or lysates may run through a third protein. Binding calls can cover weak binding; strength is not graded here.
